According to the supplement of paper PMC4962491:
± gives the standard deviation of the averaged measurements. Only a part is listed here, and it is no random draw. This data set is noisy: repeats of one test often differ as much as different tests do.

Test system: FaDu
Assay: mitochondrial oxygen consumption rate normalised to cell number, Z score over the library; higher = higher oxygen consumption (negative = OCR reduction)
Settings: treatment time 24 h, assay medium: 5 mM galactose, 5 mM pyruvate, 4 mM glutamine
Experimental: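 Primary screen: FaDu cells were incubated 24 h with Pharmakon 1600 / TDI oncology set compounds at 2 or 10 uM. Mitochondrial-specific OCR (basal minus 2 uM antimycin A) was measured on a Seahorse XF96 in assay medium with 5 mM galactose, 5 mM pyruvate and 4 mM glutamine, then corrected for Hoechst cell number and expressed as a Z score […]. Compounds that cut cell number by >66% were excluded. Two repeats.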

Row | Compound | mitochondrial oxygen consumption rate normalised (2 µM) | mitochondrial oxygen consumption rate normalised (10 µM)
1 | COC(=O)Nc1nc2cc(Sc3ccccc3)ccc2[nH]1 | -0.065 ± 0.23 | 
2 | CC(=O)N(CC(O)CO)c1c(I)c(C(=O)NCC(O)CO)c(I)c(C(=O)NCC(O)CO)c1I (stereo unspecified) | 0.295 ± 0.9 | 
3 | CN1CCN(CC(=O)N2c3ccccc3C(=O)Nc3cccnc32)CC1 | 0.0329 ± 0.57 | 
4 | CC(=O)N(CC(O)CO)c1c(I)c(C(=O)NCCO)c(I)c(C(=O)NCC(O)CO)c1I (stereo unspecified) | -0.226 ± 0.72 | 
5 | CC(C)NCC(O)COc1ccc(CC(N)=O)cc1 (stereo unspecified) | -0.231 ± 0.16 | 
6 | CC1=C(C)C(=O)C(C(CCCCCC(=O)O)c2ccccc2)=C(C)C1=O (stereo unspecified) | 0.367 ± 0.25 | 
7 | CNCCc1ccccn1 | 0.331 ± 0.1 | 
8 | CC1CC2C3CCC4=CC(=O)C=CC4(C)C3(F)C(O)CC2(C)C1C(=O)CO (stereo unspecified) | -0.215 ± 0.0033 | 
9 | CC=CC(=O)N(CC)c1ccccc1C | -0.329 ± 0.14 | 
10 | CN(C)C(=N)NC(=N)N | -0.544 ± 0.47 | 
11 | NCCCCCC(=O)O | 1.32 ± 0.82 | 
12 | Nc1nc2c(ncn2COC(CO)CO)c(=O)[nH]1 | 0.36 ± 0.068 | 
13 | CCCCCCCCCCCCCCCC(=O)OC[C@H](O)[C@H]1OC(=O)C(O)=C1O | 0.851 ± 0.43 | 
14 | Clc1cccc(Cl)c1NC1=NCCN1 | 0.256 ± 1.6 | 
15 | CO[C@H]1/C=C/O[C@@]2(C)Oc3c(C)c(O)c4c(O)c(c5c(nc6cc(C)ccn65)c4c3C2=O)NC(=O)/C(C)=C\C=C\[C@H](C)[C@H](O)[C@@H](C)[C@@H](O)[C@@H](C)[C@H](OC(C)=O)[C@@H]1C | -0.44 ± 0.85 | 0.795 ± 0.38
16 | Cc1cc(O)c(C(=O)N[C@@H](C(=O)N[C@@H]2C(=O)N3C(C(=O)O)=C(CSc4nnnn4C)CS[C@H]23)c2ccc(O)cc2)cn1 | -0.71 ± 0.4 | 
17 | CC(=O)O[C@]1(C(C)=O)CC[C@H]2[C@@H]3C=C(Cl)C4=CC(=O)CC[C@]4(C)[C@H]3CC[C@@]21C | -0.389 ± 0.87 | 
18 | CCN(CC)C(C)CN1c2ccccc2Sc2ccccc21 (stereo unspecified) | 0.271 ± 0.47 | 
19 | CCCNC(=O)NS(=O)(=O)c1ccc(Cl)cc1 | 1.05 ± 1.4 | 
20 | O=C1NCC2(CCN(CCc3ccccc3)CC2)O1 | 0.291 ± 0.64 | 
21 | CN(C)CCOC(c1ccccc1)c1ccccc1.Cn1c(=O)c2[nH]c(Cl)nc2n(C)c1=O | -0.443 ± 0.78 | 
22 | Cc1cc2nc3c(=O)[nH]c(=O)nc-3n(C[C@H](O)[C@H](O)[C@H](O)CO)c2cc1C | 0.987 ± 0.05 | 
23 | CCCOc1ccc2[nH]c(NC(=O)OC)nc2c1 | 0.174 ± 1.5 | 
24 | CCN(CC)C(=O)c1ccc(O)c(OC)c1 | 0.235 ± 0.31 | 
25 | O=C(c1ccc(F)cc1)C1CCN(CCn2c(=O)[nH]c3ccccc3c2=O)CC1 | 0.341 ± 0.15 | 

Reprinted at random: 2 entries already listed
Row | Compound | mitochondrial oxygen consumption rate normalised (2 µM) | mitochondrial oxygen consumption rate normalised (10 µM)
12 | Nc1nc2c(ncn2COC(CO)CO)c(=O)[nH]1 | 0.36 ± 0.068 | 
3 | CN1CCN(CC(=O)N2c3ccccc3C(=O)Nc3cccnc32)CC1 | 0.0329 ± 0.57 | 

(next part)

Row | Compound | mitochondrial oxygen consumption rate normalised (2 µM) | mitochondrial oxygen consumption rate normalised (10 µM)
26 | CC(=O)[C@@]1(O)CC[C@H]2[C@@H]3CCC4=CC(=O)CC[C@]4(C)[C@H]3CC[C@@]21C | -1.44 ± 1.2 | 
27 | Cc1cc(C)nc(NS(=O)(=O)c2ccc(N)cc2)n1 | -0.531 ± 0.27 | 
28 | CCCCCCCC/C=C\CCCCCCCC(=O)O.NCCO | 0.00961 ± 1.2 | 
29 | COc1cc(NS(=O)(=O)c2ccc(N)cc2)ncn1 | 0.672 ± 0.45 | 0.47 ± 0.61
30 | CC1(C)O[C@@H]2C[C@H]3[C@@H]4C[C@H](F)C5=CC(=O)C=C[C@]5(C)[C@@]4(F)[C@@H](O)C[C@]3(C)[C@]2(C(=O)CO)O1 | -0.419 ± 0.62 | 
31 | COC(=O)N/N=C/c1c[n+]([O-])c2ccccc2[n+]1[O-] | 1.12 ± 0.47 | 
32 | CN(C(=O)CN(CCO)CC(=O)N(C)C(C)(C)Cc1ccccc1)C(C)(C)Cc1ccccc1 | 0.525 ± 0.92 | 
33 | CC(C)[C@H](N)C(=O)OCCOCn1cnc2c(=O)nc(N)[nH]c21 | 0.264 ± 0.27 | 
34 | CC(C(O)c1ccc(O)cc1)N1CCC(Cc2ccccc2)CC1 (stereo unspecified) | -1.28 ± 0.75 | 
35 | C[C@@H]1C/C=C/C=C/C=C/C=C/[C@H](O[C@@H]2O[C@H](C)[C@@H](O)[C@H](N)[C@@H]2O)C[C@@H]2O[C@](O)(C[C@@H](O)C[C@H]3O[C@@H]3/C=C/C(=O)O1)C[C@H](O)[C@H]2C(=O)O | -0.0302 ± 0.33 | 
36 | COc1ccc(Cl)cc1C(=O)NCCc1ccc(S(=O)(=O)NC(=O)NC2CCCCC2)cc1 | 0.578 ± 0.011 | 
37 | CCCCCCNC(=O)n1cc(F)c(=O)[nH]c1=O | 0.607 ± 1.3 | 
38 | CCCOc1ccccc1-c1nc2[nH]nnc2c(=O)[nH]1 | 0.522 ± 0.66 | 
39 | CC(=O)Nc1ccc(OC(=O)c2ccccc2O)cc1 | -0.534 ± 0.16 | -0.337 ± 0.25
40 | COc1cc2nc(N3CCN(C(=O)C4COc5ccccc5O4)CC3)nc(N)c2cc1OC (stereo unspecified) | 0.927 ± 0.94 | 
41 | CCCCC1C(=O)N(c2ccccc2)N(c2ccc(O)cc2)C1=O (stereo unspecified) | -0.199 ± 0.27 | 
42 | N[C@H]1CONC1=O | 0.285 ± 1.1 | 
43 | O=C(CCBr)N1CCN(C(=O)CCBr)CC1 | 0.446 ± 1.6 | 1.32 ± 1.1
44 | O=C(CCBr)N1CCN(C(=O)CCBr)CC1 [Pipobroman] | 0.16 ± 0.79 | -0.527 ± 1.4
45 | CCN(CC)CCOCCOC(=O)C1(c2ccccc2)CCCC1 | -0.0751 ± 1.1 | 
46 | CC#CCn1c(N2CCC[C@@H](N)C2)nc2c1c(=O)n(Cc1nc(C)c3ccccc3n1)c(=O)n2C | -0.191 ± 0.092 | 0.0591 ± 0.1
47 | O=P(O)(O)C(O)(Cn1ccnc1)P(=O)(O)O [Zoledronic Acid] | 1.02 ± 0.43 | 
48 | CCN(CCCCOC(=O)c1ccc(OC)c(OC)c1)C(C)Cc1ccc(OC)cc1 (stereo unspecified) | 0.16 ± 0.55 | 
49 | Cc1cc(C(C)(C)C)cc(C)c1CC1=NCCN1 | 0.145 ± 0.013 | 
50 | CCN(CC)C(=O)C1(c2ccccc2)CC1CN (stereo unspecified) | 0.372 ± 0.47 | 
